Reference: patent publication US8835438B2, “Method of treating memory/learning dysfunctions caused by schizophrenia with lurasidone” (Sumitomo Dainippon Pharma Co., Ltd., priority 2004, dated 2014)
At least one structure is not confirmed: it was looked up by name or label, or the drawing left a doubt.

Assays:
[1] = test system: methamphetamine-induced hyperponesis; conditions: rats; reflects anti-psychotic activity; cited from earlier work
[2] = test system: MK-801-induced memory/learning dysfunctions; experiment: Step-through passive avoidance response test, MK-801-induced memory/learning dysfunctions; assay type: in vivo, Wistar male rats; conditions: MK-801 administered in both training and testing sessions
Experimental: Wistar male rats (7 weeks old) were used. […] Serotonin 5-HT 1A receptor antagonist WAY-100635 or noradrenaline a2 receptor antagonist 1-PP was dissolved in a physiological saline solution (Otsuka Pharmaceutical Co., Ltd.) and used as a test compound. As an NMDA type receptor antagonist, MK-801 hydrogen maleate (SIGMA-ALDRICH M-107) was dissolved in a physiological saline solution (Otsuka Pharmaceutical Co., Ltd.). […] For the evaluation of state-dependency of MC-801, MK-801 was administered before the training session, and a physiological saline solution was administered before the testing session instead. The dosing value thereof was 5 ml/kg for each.
The step-through type passive avoidance response test was carried out in the following manners with the use of an apparatus consisting of a light-dark box, a slide door dividing the light-dark box and a shock generator (manufactured by O'hara & Co., Ltd., PA-2030A, PA-3001A) as an experimental apparatus. […] The period between the time just after the slide door was opened and the time at which the rats entered into the dark box was measured as a step-through latency. […] The step-through latency at the testing session was measured up to 300 seconds, and the step-through latency over 300 seconds was regarded as 300 seconds. […]

SMILES: CN1CCN(C2=Nc3cc(Cl)ccc3Nc3ccccc32)CC1 [Clozapine, clozapine]
- dose to inhibit 50% of methamphetamine-induced hyperponesis (ED50) [1]: 65 mg/kg, p.o.

SMILES: Cc1cc2c(s1)Nc1ccccc1N=C2N1CCN(C)CC1 [Olanzapine, olanzapine]
- drug efficacy on memory dysfunction (in words) [2]: no drug efficacy was observed
